Results as given in US20120329784A1, “COMPOUNDS AND METHODS” (priority 2010, published 2012).
Where a name gives a salt, the structure may show the parent alone. Some entries share one result that the patent states for a list of compounds.

Target: T1, Full length human TNNI3K (hTNNI3K) (Homo sapiens, UniProt Q59H18)
T1 construct: His-MBP-TEV-Full length human TNNI3K (hTNNI3K); His (N); MBP (N); TEV cleavage site (N); made in house; host or cells: baculovirus expression system (printed 'Baculokinase system')
T1 sequence (Q59H18 1-835): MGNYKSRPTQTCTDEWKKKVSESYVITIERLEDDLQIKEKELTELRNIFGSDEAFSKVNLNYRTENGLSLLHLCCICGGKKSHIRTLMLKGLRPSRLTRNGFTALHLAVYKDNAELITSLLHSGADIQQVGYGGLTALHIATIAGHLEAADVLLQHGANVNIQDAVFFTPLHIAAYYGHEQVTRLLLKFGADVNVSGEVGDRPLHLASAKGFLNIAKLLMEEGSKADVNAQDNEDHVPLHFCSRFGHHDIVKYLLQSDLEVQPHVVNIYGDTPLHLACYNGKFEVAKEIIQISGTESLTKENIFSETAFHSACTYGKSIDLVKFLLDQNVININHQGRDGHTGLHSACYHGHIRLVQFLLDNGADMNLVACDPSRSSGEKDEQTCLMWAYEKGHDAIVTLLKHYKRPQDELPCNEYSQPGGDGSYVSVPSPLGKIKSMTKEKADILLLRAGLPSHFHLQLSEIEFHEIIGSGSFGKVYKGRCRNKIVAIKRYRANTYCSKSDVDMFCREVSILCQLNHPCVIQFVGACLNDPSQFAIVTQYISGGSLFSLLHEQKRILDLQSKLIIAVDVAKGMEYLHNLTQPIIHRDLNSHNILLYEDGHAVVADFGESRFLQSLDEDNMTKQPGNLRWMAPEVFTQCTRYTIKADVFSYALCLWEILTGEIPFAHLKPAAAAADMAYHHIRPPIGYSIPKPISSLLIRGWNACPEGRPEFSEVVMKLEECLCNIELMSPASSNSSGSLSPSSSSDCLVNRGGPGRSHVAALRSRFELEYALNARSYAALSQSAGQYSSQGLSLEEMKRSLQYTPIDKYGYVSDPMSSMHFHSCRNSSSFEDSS
Experiment: Fluorescent polarization assay of compound inhibition on hTNNI3K ATP binding (Biological Assay Method I)
Conditions: mean of a minimum of 2 experiments; displacement of fluorescent ligand from hTNNI3K ATP binding pocket; 60 min at rt

pXC50, ≥ 6.0:
CNS(=O)(=O)c1cccc(Nc2cc(Nc3ccc(Cl)c(F)c3)ncn2)c1 [Example 104, 3-({6-[(4-chloro-3-fluorophenyl)amino]-4-pyrimidinyl}amino)-N-methylbenzenesulfonamide trifluoroacetate]
CNS(=O)(=O)c1cccc(Nc2cc(Nc3ccc4c(c3)NC(=O)CC4)ncn2)c1 [Example 219, N-methyl-3-({6-[(2-oxo-1,2,3,4-tetrahydro-7-quinolinyl)amino]-4-pyrimidinyl}amino)benzenesulfonamide trifluoroacetate]
CNS(=O)(=O)c1ccc(S(=O)(=O)C(C)C)c(Nc2cc(Nc3ccc(C(F)(F)F)cn3)ncn2)c1 [Example 312, N-methyl-4-(propane-2-sulfonyl)-3-[6-(5-trifluoromethyl-pyridin-2-ylamino)-pyrimidin-4-ylamino]-benzenesulfonamide]
CNS(=O)(=O)c1ccc(OCC(F)(F)F)c(Nc2cc(Nc3ccc(OC(F)(F)F)cc3)ncn2)c1 [Example 119, N-methyl-4-[(2,2,2-trifluoroethyl)oxy]-3-{[6-({4-[(trifluoromethyl)oxy]phenyl}amino)-4-pyrimidinyl]amino}benzenesulfonamide trifluoroacetate]
CNS(=O)(=O)c1ccc(F)c(Nc2cc(Nc3ccc(OC(F)F)cc3)ncn2)c1 [Example 129, 3-{[6-({4-[(difluoromethyl)oxy]phenyl}amino)-4-pyrimidinyl]amino}-4-fluoro-N-methylbenzenesulfonamide trifluoroacetate]
CNS(=O)(=O)c1cccc(Nc2cc(Nc3ccc(C(=O)Nc4ccccc4)cc3)ncn2)c1 [Example 73, 4-{[6-({3-[(methylamino)sulfonyl]phenyl}amino)-4-pyrimidinyl]amino}-N-phenylbenzamide trifluoroacetate]
CNS(=O)(=O)c1cccc(Nc2cc(Nc3nccs3)ncn2)c1 [Example 274, N-methyl-3-{[6-(1,3-thiazol-2-ylamino)-4-pyrimidinyl]amino}benzenesulfonamide trifluoroacetate]
CNS(=O)(=O)c1cccc(Nc2cc(Nc3ccc(CC(F)(F)F)cc3)ncn2)c1 [Example 108, N-methyl-3-[(6-{[4-(2,2,2-trifluoroethyl)phenyl]amino}-4-pyrimidinyl)amino]benzenesulfonamide trifluoroacetate]
CNS(=O)(=O)c1ccc2[nH]c(=O)n(-c3cc(Nc4ccc(Cl)cc4)ncn3)c2c1 [Example 328, 3-{6-[(4-chlorophenyl)amino]-4-pyrimidinyl}-N-methyl-2-oxo-2,3-dihydro-1H-benzimidazole-5-sulfonamide trifluoroacetate]
CNS(=O)(=O)c1cccc(Nc2cc(Nc3ccc(C(=O)NCCCOC)cc3)ncn2)c1 [Example 359, 4-{[6-({3-[(methylamino)sulfonyl]phenyl}amino)-4-pyrimidinyl]amino}-N-[3-(methyloxy)propyl]benzamide]
CNS(=O)(=O)c1cccc(Nc2cc(Nc3cccc(-c4ccc(OC)nc4)c3)ncn2)c1 [Example 334, N-methyl-3-{[6-({3-[6-(methyloxy)-3-pyridinyl]phenyl}amino)-4-pyrimidinyl]amino}benzenesulfonamide]
CNS(=O)(=O)c1cccc(Nc2cc(Nc3ccc(C(=O)OC)cc3)ncn2)c1 [Example 88, methyl 4-{[6-({3-[(methylamino)sulfonyl]phenyl}amino)-4-pyrimidinyl]amino}benzoate]
CNS(=O)(=O)c1cccc(Nc2cc(Nc3ccc4sc(C)nc4c3)ncn2)c1 [Example 76, N-methyl-3-({6-[(2-methyl-1,3-benzothiazol-5-yl)amino]-4-pyrimidinyl}amino)benzenesulfonamide trifluoroacetate]
